Laboratory results from patent US9023873B2, “Insecticidal 2-methoxybenzamide derivatives” (Syngenta Participations AG, priority 2011, dated 2015).
Some entries share one result that the patent states for a list of compounds.

Tests used:
Type in all cases: in vivo
[1] = tested on: Myzus persicae (Green peach aphid); test: Myzus persicae sunflower leaf disc spray test; details: 200 ppm spray on sunflower leaf discs, aphid population of mixed ages, 6 DAT; mortality
[2] = tested on: Heliothis virescens (Tobacco budworm); test: Heliothis virescens egg test on artificial diet; details: 200 ppm (concentration in well 18 ppm), eggs 0-24 h old on artificial diet, 4 days; egg mortality, larval mortality, growth regulation
[3] = tested on: Spodoptera littoralis (Egyptian cotton leafworm); test: Spodoptera littoralis cotton leaf disc spray test; details: 200 ppm spray on cotton leaf discs, L1 larvae, mortality, feeding behavior, growth regulation 3 days after treatment
[4] = tested on: Plutella xylostella (Diamond back moth); test: Plutella xylostella larval test on artificial diet; details: 200 ppm (concentration in well 18 ppm), L2 larvae, 6 days, larval mortality, growth regulation
[5] = tested on: Thrips tabaci (Onion thrips); test: Thrips tabaci sunflower leaf disc spray test; details: 200 ppm spray on sunflower leaf discs, population of mixed ages, 7 days; mortality
[6] = tested on: Diabrotica balteata (Corn root worm); test: Diabrotica balteata larval test on artificial diet; details: 200 ppm (concentration in well 18 ppm), L2 larvae, 5 days, larval mortality, growth regulation

COc1c(NC(=O)c2cc[n+]([O-])cc2)cccc1C(=O)Nc1c(Cl)cc(C(F)(C(F)(F)F)C(F)(F)F)cc1Br [Compound D3, N-[3-[[[2-bromo-6-chloro-4-(1,2,2,2,3,3,3-heptafluoro-propyl)phenyl]amino]carbonyl]-2-methoxyphenyl]-4-pyridinecarboxamide-1-oxide]
at least 80%: control of Myzus persicae [1] | control of Heliothis virescens [2] | control of Spodoptera littoralis [3] | control of Plutella xylostella [4] | control of Thrips tabaci [5] | control of Diabrotica balteata [6]

CCN(C(=O)c1ccncc1)c1cccc(C(=O)Nc2c(Cl)cc(C(F)(C(F)(F)F)C(F)(F)F)cc2Br)c1OC [Compound D4]
at least 80%: control of Myzus persicae [1] | control of Heliothis virescens [2] | control of Spodoptera littoralis [3] | control of Plutella xylostella [4] | control of Thrips tabaci [5] | control of Diabrotica balteata [6]

COc1c(C(=O)Nc2c(Cl)cc(C(F)(C(F)(F)F)C(F)(F)F)cc2Br)cccc1N(C)C(=O)c1ccncc1 [Compound D5]
at least 80%: control of Myzus persicae [1] | control of Heliothis virescens [2] | control of Spodoptera littoralis [3] | control of Plutella xylostella [4] | control of Thrips tabaci [5] | control of Diabrotica balteata [6]

CCN(C(=O)c1cc[n+]([O-])cc1)c1cccc(C(=O)Nc2c(Cl)cc(C(F)(C(F)(F)F)C(F)(F)F)cc2Br)c1OC [Compound D6]
at least 80%: control of Myzus persicae [1] | control of Heliothis virescens [2] | control of Spodoptera littoralis [3] | control of Plutella xylostella [4] | control of Thrips tabaci [5] | control of Diabrotica balteata [6]

COc1c(C(=O)Nc2c(Cl)cc(C(F)(C(F)(F)F)C(F)(F)F)cc2Br)cccc1N(C)C(=O)c1cc[n+]([O-])cc1 [Compound D7]
at least 80%: control of Myzus persicae [1] | control of Heliothis virescens [2] | control of Spodoptera littoralis [3] | control of Plutella xylostella [4] | control of Thrips tabaci [5] | control of Diabrotica balteata [6]

CCCN(C(=O)c1ccncc1)c1cccc(C(=O)Nc2c(Cl)cc(C(F)(C(F)(F)F)C(F)(F)F)cc2Br)c1OC [Compound D8]
at least 80%: control of Myzus persicae [1] | control of Heliothis virescens [2] | control of Spodoptera littoralis [3] | control of Plutella xylostella [4] | control of Diabrotica balteata [6]

COc1c(C(=O)Nc2c(Cl)cc(C(F)(C(F)(F)F)C(F)(F)F)cc2Br)cccc1N(C(=O)c1ccncc1)C(C)C [Compound D9]
at least 80%: control of Myzus persicae [1] | control of Heliothis virescens [2] | control of Spodoptera littoralis [3] | control of Plutella xylostella [4] | control of Diabrotica balteata [6]

CCCN(C(=O)c1cc[n+]([O-])cc1)c1cccc(C(=O)Nc2c(Cl)cc(C(F)(C(F)(F)F)C(F)(F)F)cc2Br)c1OC [Compound D10]
at least 80%: control of Myzus persicae [1] | control of Heliothis virescens [2] | control of Spodoptera littoralis [3] | control of Plutella xylostella [4] | control of Diabrotica balteata [6]

COc1c(NC(=O)c2cccnc2)cccc1C(=O)Nc1c(Cl)cc(C(F)(C(F)(F)F)C(F)(F)F)cc1Br [Compound D11]
at least 80%: control of Myzus persicae [1] | control of Heliothis virescens [2] | control of Spodoptera littoralis [3] | control of Plutella xylostella [4] | control of Thrips tabaci [5] | control of Diabrotica balteata [6]

COc1c(NC(=O)c2ccc(Cl)nc2)cccc1C(=O)Nc1c(Cl)cc(C(F)(C(F)(F)F)C(F)(F)F)cc1Br [Compound D12]
at least 80%: control of Myzus persicae [1] | control of Heliothis virescens [2] | control of Spodoptera littoralis [3] | control of Plutella xylostella [4] | control of Thrips tabaci [5] | control of Diabrotica balteata [6]

COc1c(NC(=O)c2cncc(Cl)c2)cccc1C(=O)Nc1c(Cl)cc(C(F)(C(F)(F)F)C(F)(F)F)cc1Br [Compound D13]
at least 80%: control of Myzus persicae [1] | control of Heliothis virescens [2] | control of Spodoptera littoralis [3] | control of Plutella xylostella [4] | control of Thrips tabaci [5] | control of Diabrotica balteata [6]

COc1c(NC(=O)c2ccc[n+]([O-])c2)cccc1C(=O)Nc1c(Cl)cc(C(F)(C(F)(F)F)C(F)(F)F)cc1Br [Compound D14]
at least 80%: control of Myzus persicae [1] | control of Heliothis virescens [2] | control of Spodoptera littoralis [3] | control of Plutella xylostella [4] | control of Thrips tabaci [5] | control of Diabrotica balteata [6]

CCN(C(=O)c1cncc(Cl)c1)c1cccc(C(=O)Nc2c(Cl)cc(C(F)(C(F)(F)F)C(F)(F)F)cc2Br)c1OC [Compound D15]
at least 80%: control of Myzus persicae [1] | control of Heliothis virescens [2] | control of Spodoptera littoralis [3] | control of Plutella xylostella [4] | control of Thrips tabaci [5] | control of Diabrotica balteata [6]

COc1c(C(=O)Nc2c(Cl)cc(C(F)(C(F)(F)F)C(F)(F)F)cc2Br)cccc1N(C)C(=O)c1cncc(Cl)c1 [Compound D16]
at least 80%: control of Myzus persicae [1] | control of Heliothis virescens [2] | control of Spodoptera littoralis [3] | control of Plutella xylostella [4] | control of Thrips tabaci [5] | control of Diabrotica balteata [6]

CCN(C(=O)c1cccnc1)c1cccc(C(=O)Nc2c(Cl)cc(C(F)(C(F)(F)F)C(F)(F)F)cc2Br)c1OC [Compound D17]
at least 80%: control of Myzus persicae [1] | control of Heliothis virescens [2] | control of Spodoptera littoralis [3] | control of Plutella xylostella [4] | control of Thrips tabaci [5] | control of Diabrotica balteata [6]

COc1c(C(=O)Nc2c(Cl)cc(C(F)(C(F)(F)F)C(F)(F)F)cc2Br)cccc1N(C)C(=O)c1cccnc1 [Compound D18]
at least 80%: control of Myzus persicae [1] | control of Heliothis virescens [2] | control of Spodoptera littoralis [3] | control of Plutella xylostella [4] | control of Thrips tabaci [5] | control of Diabrotica balteata [6]

CCN(C(=O)c1ccc[n+]([O-])c1)c1cccc(C(=O)Nc2c(Cl)cc(C(F)(C(F)(F)F)C(F)(F)F)cc2Br)c1OC [Compound D19]
at least 80%: control of Myzus persicae [1] | control of Heliothis virescens [2] | control of Spodoptera littoralis [3] | control of Plutella xylostella [4] | control of Thrips tabaci [5] | control of Diabrotica balteata [6]

COc1c(C(=O)Nc2c(Cl)cc(C(F)(C(F)(F)F)C(F)(F)F)cc2Br)cccc1N(C)C(=O)c1ccc[n+]([O-])c1 [Compound D20]
at least 80%: control of Myzus persicae [1] | control of Heliothis virescens [2] | control of Spodoptera littoralis [3] | control of Plutella xylostella [4] | control of Thrips tabaci [5] | control of Diabrotica balteata [6]

CCCN(C(=O)c1cccnc1)c1cccc(C(=O)Nc2c(Cl)cc(C(F)(C(F)(F)F)C(F)(F)F)cc2Br)c1OC [Compound D21]
at least 80%: control of Myzus persicae [1] | control of Heliothis virescens [2] | control of Spodoptera littoralis [3] | control of Plutella xylostella [4] | control of Diabrotica balteata [6]

COc1c(C(=O)Nc2c(Cl)cc(C(F)(C(F)(F)F)C(F)(F)F)cc2Br)cccc1N(C(=O)c1cccnc1)C(C)C [Compound D22]
at least 80%: control of Heliothis virescens [2] | control of Spodoptera littoralis [3] | control of Plutella xylostella [4] | control of Diabrotica balteata [6]

CCCN(C(=O)c1ccc[n+]([O-])c1)c1cccc(C(=O)Nc2c(Cl)cc(C(F)(C(F)(F)F)C(F)(F)F)cc2Br)c1OC [Compound D24]
at least 80%: control of Heliothis virescens [2] | control of Plutella xylostella [4] | control of Thrips tabaci [5]

COc1c(C(=O)Nc2c(Cl)cc(C(F)(C(F)(F)F)C(F)(F)F)cc2Br)cccc1N(CCC(N)=O)C(=O)c1ccncc1 [Compound D27]
at least 80%: control of Myzus persicae [1] | control of Heliothis virescens [2] | control of Spodoptera littoralis [3] | control of Plutella xylostella [4] | control of Thrips tabaci [5] | control of Diabrotica balteata [6]

CCCN(C(=O)c1cncc(Cl)c1)c1cccc(C(=O)Nc2c(Cl)cc(C(F)(C(F)(F)F)C(F)(F)F)cc2Br)c1OC [Compound D35]
at least 80%: control of Heliothis virescens [2] | control of Spodoptera littoralis [3] | control of Plutella xylostella [4] | control of Thrips tabaci [5] | control of Diabrotica balteata [6]
